# Laboratory results from paper PMC12751603 (Journal of Experimental & Clinical Cancer Research : CR, 2025).
# Protein sequences, listed by entry. Tags and fused reporters are not part of them. Residues count along the entry.
# UniProt P08069, residues 31-1367: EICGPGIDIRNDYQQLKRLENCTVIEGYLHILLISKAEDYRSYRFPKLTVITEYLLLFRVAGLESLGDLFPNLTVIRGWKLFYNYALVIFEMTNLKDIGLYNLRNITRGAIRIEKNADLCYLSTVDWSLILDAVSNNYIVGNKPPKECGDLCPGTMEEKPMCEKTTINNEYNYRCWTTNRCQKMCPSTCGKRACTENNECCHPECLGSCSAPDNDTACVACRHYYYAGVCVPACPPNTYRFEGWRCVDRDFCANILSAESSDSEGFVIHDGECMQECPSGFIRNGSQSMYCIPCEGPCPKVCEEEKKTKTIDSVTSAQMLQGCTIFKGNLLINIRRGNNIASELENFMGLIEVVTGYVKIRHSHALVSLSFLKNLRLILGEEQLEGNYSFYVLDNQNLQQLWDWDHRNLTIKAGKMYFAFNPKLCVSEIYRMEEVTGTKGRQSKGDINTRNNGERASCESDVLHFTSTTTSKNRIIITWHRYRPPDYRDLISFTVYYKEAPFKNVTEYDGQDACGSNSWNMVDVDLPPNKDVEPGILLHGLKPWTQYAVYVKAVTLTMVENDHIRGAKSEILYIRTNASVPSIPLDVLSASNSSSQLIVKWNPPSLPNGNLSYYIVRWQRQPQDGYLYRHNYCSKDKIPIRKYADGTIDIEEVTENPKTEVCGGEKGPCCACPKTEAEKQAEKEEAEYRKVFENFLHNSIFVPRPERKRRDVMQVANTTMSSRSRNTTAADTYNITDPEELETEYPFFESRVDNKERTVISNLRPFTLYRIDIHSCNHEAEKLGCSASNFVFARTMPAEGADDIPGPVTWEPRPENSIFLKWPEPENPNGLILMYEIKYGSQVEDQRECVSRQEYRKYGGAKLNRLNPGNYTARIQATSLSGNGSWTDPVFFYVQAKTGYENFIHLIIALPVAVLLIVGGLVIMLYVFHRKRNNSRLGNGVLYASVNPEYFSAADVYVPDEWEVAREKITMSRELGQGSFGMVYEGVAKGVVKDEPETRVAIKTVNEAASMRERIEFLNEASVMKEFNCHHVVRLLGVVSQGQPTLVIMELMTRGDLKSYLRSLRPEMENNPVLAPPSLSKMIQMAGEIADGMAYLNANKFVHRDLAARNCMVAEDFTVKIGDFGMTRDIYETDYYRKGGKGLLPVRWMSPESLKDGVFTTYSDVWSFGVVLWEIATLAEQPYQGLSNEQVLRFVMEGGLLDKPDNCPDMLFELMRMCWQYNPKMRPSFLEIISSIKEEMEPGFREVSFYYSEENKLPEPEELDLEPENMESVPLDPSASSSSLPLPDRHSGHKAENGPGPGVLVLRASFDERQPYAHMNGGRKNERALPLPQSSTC
# Residue numbers refer to the chain shown, from its start. These are yes or no findings as the source states them, for the method shown. Binding seen in cells or lysates may run through a third protein. These calls come from enrichment with a bait or labelling near it, and not all partners need be listed. Sequences can lack the tags named with a protein.
# Columns and labels:
# [1] = target: T1, Flag-tagged PTPN9^D470A (UniProt P43378); test: affinity purification with mass spectrometry; immunoprecipitation of Flag-tagged PTPN9 trapping mutants (and empty Flag vector) from HEK293T cells, LC-MS/MS
# T1 sequence: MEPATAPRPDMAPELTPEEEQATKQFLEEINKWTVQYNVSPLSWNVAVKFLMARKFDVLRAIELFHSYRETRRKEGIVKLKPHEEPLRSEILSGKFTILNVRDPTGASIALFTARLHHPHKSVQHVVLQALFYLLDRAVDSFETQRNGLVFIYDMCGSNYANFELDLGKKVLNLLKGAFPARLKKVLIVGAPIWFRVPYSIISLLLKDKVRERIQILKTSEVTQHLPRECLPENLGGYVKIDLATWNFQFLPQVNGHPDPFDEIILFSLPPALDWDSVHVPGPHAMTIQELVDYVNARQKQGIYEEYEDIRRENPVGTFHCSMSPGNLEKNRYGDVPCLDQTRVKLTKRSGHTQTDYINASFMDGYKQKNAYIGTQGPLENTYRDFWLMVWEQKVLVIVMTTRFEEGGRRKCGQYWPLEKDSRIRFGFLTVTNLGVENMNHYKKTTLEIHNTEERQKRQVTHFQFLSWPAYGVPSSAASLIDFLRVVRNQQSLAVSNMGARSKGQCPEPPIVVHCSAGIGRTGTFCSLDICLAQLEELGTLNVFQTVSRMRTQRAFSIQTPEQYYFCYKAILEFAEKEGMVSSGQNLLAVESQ
# [2] = target: T2, Flag-tagged PTPN9^C515S (UniProt P43378); test: as above
# T2 sequence: T1 sequence with A470D, C515S
substance,measurement,setting,value
Insulin-like growth factor 1 receptor (endogenous) (from UniProt P08069 31-1367),binding,[1],binds
same,binding,[2],binds
